# The other results are listed elsewhere or left out.
# Legend:
# Test in all cases: glycan array binding signal (z-score within array); higher = stronger binding
# Conditions in all cases: glycan notation: IUPAC condensed, linker removed
# [1] = target: Gal(a1-2)Gal
# Summary of the method: (§1)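 Glycan array data were curated from 3228 arrays in the Consortium for Functional Glycomics database and kept only where the protein sequence was available. Glycan names were converted to IUPAC-condensed notation, and columns mapping to the same glycan were averaged. The binding signal is a within-array Z-score, averaged across arrays of the same protein sequence at different concentrations or buffers and across linkers. Negative Z-scores can be read as non-binding.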
# [2] = target: Gal(a1-3)Gal
# Summary of the method: as §1
# [3] = target: Gal(a1-3)Gal(b1-3)GlcNAc
# Summary of the method: as §1
# [4] = target: Gal(a1-3)Gal(b1-4)Glc
# Summary of the method: as §1
# [5] = target: Gal(a1-3)Gal(b1-4)GlcNAc
# Summary of the method: as §1
# [6] = target: Gal(a1-3)Gal(b1-4)[Fuc(a1-3)]GlcNAc
# Summary of the method: as §1
# [7] = target: Gal(a1-3)Gal(b1-4)[Fuc(a1-3)]GlcNAc(b1-2)Man(a1-3)[Gal(a1-3)Gal(b1-4)[Fuc(a1-3)]GlcNAc(b1-2)Man(a1-6)]Man(b1-4)GlcNAc(b1-4)GlcNAc
# Summary of the method: as §1
# [8] = target: Gal(a1-3)GalNAc
# Summary of the method: as §1
# [9] = target: Gal(a1-3)[Gal(a1-4)]Gal(b1-4)GlcNAc
# Summary of the method: as §1
# [10] = target: Gal(a1-4)Gal(b1-4)Glc
# Summary of the method: as §1
# [11] = target: Gal(a1-4)Gal(b1-4)GlcNAc
# Summary of the method: as §1
# [12] = target: Gal(a1-4)Gal(b1-4)GlcNAc(b1-3)Gal(b1-4)Glc
# Summary of the method: as §1
# [13] = target: Gal(a1-4)GlcNAc
# Summary of the method: as §1
# [14] = target: Gal(a1-6)Glc
# Summary of the method: as §1
# [15] = target: Gal(b1-2)Gal
# Summary of the method: as §1
# [16] = target: Gal(b1-3)Gal
# Summary of the method: as §1
# [17] = target: Gal(b1-3)Gal(b1-4)GlcNAc
# Summary of the method: as §1
# [18] = target: Gal(b1-3)Gal(b1-4)GlcNAc(b1-2)Man(a1-3)[Gal(b1-3)Gal(b1-4)GlcNAc(b1-2)Man(a1-6)]Man(b1-4)GlcNAc(b1-4)GlcNAc
# Summary of the method: as §1
# [19] = target: Gal(b1-3)GalNAc
# Summary of the method: as §1
# [20] = target: Gal(b1-3)GalNAc(a1-3)[Fuc(a1-2)]Gal(b1-4)Glc
# Summary of the method: as §1
# [21] = target: Gal(b1-3)GalNAc(a1-3)[Fuc(a1-2)]Gal(b1-4)GlcNAc
# Summary of the method: as §1
# [22] = target: Gal(b1-3)GalNAc(b1-3)Gal(a1-4)Gal(b1-4)Glc
# Summary of the method: as §1
# [23] = target: Gal(b1-3)GalNAc(b1-4)Gal(b1-4)Glc
# Summary of the method: as §1
# [24] = target: Gal(b1-3)GalNAc(b1-4)[Neu5Ac(a2-3)]Gal(b1-4)Glc
# Summary of the method: as §1
# [25] = target: Gal(b1-3)GlcNAc
# Summary of the method: as §1
# [26] = target: Gal(b1-3)GlcNAc(b1-2)Man(a1-3)[Gal(b1-3)GlcNAc(b1-2)Man(a1-6)]Man(b1-4)GlcNAc(b1-4)GlcNAc
# Summary of the method: as §1
# [27] = target: Gal(b1-3)GlcNAc(b1-2)Man(a1-3)[Gal(b1-3)GlcNAc(b1-2)Man(a1-6)]Man(b1-4)GlcNAc(b1-4)[Fuc(a1-6)]GlcNAc
# Summary of the method: as §1
# [28] = target: Gal(b1-3)GlcNAc(b1-3)Gal(b1-3)GlcNAc
# Summary of the method: as §1
# [29] = target: Gal(b1-3)GlcNAc(b1-3)Gal(b1-4)Glc
# Summary of the method: as §1
# [30] = target: Gal(b1-3)GlcNAc(b1-3)Gal(b1-4)GlcNAc
# Summary of the method: as §1
# [31] = target: Gal(b1-3)[Fuc(a1-4)]GlcNAc
# Summary of the method: as §1
# [32] = target: Gal(b1-3)[Fuc(a1-4)]GlcNAc(b1-2)Man(a1-3)[Gal(b1-3)[Fuc(a1-4)]GlcNAc(b1-2)Man(a1-6)]Man(b1-4)GlcNAc(b1-4)GlcNAc
# Summary of the method: as §1
# [33] = target: Gal(b1-3)[Fuc(a1-4)]GlcNAc(b1-2)Man(a1-3)[Gal(b1-3)[Fuc(a1-4)]GlcNAc(b1-2)Man(a1-6)]Man(b1-4)GlcNAc(b1-4)[Fuc(a1-6)]GlcNAc
# Summary of the method: as §1
# [34] = target: Gal(b1-3)[Fuc(a1-4)]GlcNAc(b1-3)Gal(b1-3)[Fuc(a1-4)]GlcNAc
# Summary of the method: as §1
# [35] = target: Gal(b1-3)[Fuc(a1-4)]GlcNAc(b1-3)Gal(b1-4)GlcNAc
# Summary of the method: as §1
# [36] = target: Gal(b1-3)[Fuc(a1-4)]GlcNAc(b1-3)Gal(b1-4)[Fuc(a1-3)]GlcNAc
# Summary of the method: as §1
# [37] = target: Gal(b1-3)[GlcNAc(b1-6)]GalNAc
# Summary of the method: as §1
# [38] = target: Gal(b1-3)[Neu5Ac(a2-6)]GalNAc
# Summary of the method: as §1
# [39] = target: Gal(b1-3)[Neu5Ac(a2-6)]GlcNAc(b1-6)Gal(b1-4)Glc
# Summary of the method: as §1
# [40] = target: Gal(b1-3)[Neu5Ac(b2-6)]GalNAc
# Summary of the method: as §1
# [41] = target: Gal(b1-4)GalNAc(a1-3)[Fuc(a1-2)]Gal(b1-4)GlcNAc
# Summary of the method: as §1
# [42] = target: Gal(b1-4)GalNAc(b1-3)[Fuc(a1-2)]Gal(b1-4)GlcNAc
# Summary of the method: as §1
# [43] = target: Gal(b1-4)Glc
# Summary of the method: as §1
# [44] = target: Gal(b1-4)Glc6S
# Summary of the method: as §1
# [45] = target: Gal(b1-4)GlcNAc
# Summary of the method: as §1
# [46] = target: Gal(b1-4)GlcNAc(a1-6)Gal(b1-4)GlcNAc
# Summary of the method: as §1
# [47] = target: Gal(b1-4)GlcNAc(b1-2)Man(a1-3)Man(b1-4)GlcNAc(b1-4)GlcNAc
# Summary of the method: as §1
# [48] = target: Gal(b1-4)GlcNAc(b1-2)Man(a1-3)[Gal(b1-4)GlcNAc(b1-2)Man(a1-6)]Man(b1-4)GlcNAc(b1-4)GlcNAc
# Summary of the method: as §1
# [49] = target: Gal(b1-4)GlcNAc(b1-2)Man(a1-3)[Gal(b1-4)GlcNAc(b1-2)Man(a1-6)]Man(b1-4)GlcNAc(b1-4)[Fuc(a1-6)]GlcNAc
# Summary of the method: as §1
# [50] = target: Gal(b1-4)GlcNAc(b1-2)Man(a1-3)[Man(a1-6)]Man(b1-4)GlcNAc(b1-4)GlcNAc
# Summary of the method: as §1
# [51] = target: Gal(b1-4)GlcNAc(b1-2)Man(a1-6)Man(b1-4)GlcNAc(b1-4)GlcNAc
# Summary of the method: as §1
# [52] = target: Gal(b1-4)GlcNAc(b1-2)Man(a1-6)[Man(a1-3)]Man(b1-4)GlcNAc(b1-4)GlcNAc
# Summary of the method: as §1
# [53] = target: Gal(b1-4)GlcNAc(b1-2)[Gal(b1-4)GlcNAc(b1-4)]Man(a1-3)[Gal(b1-4)GlcNAc(b1-2)Man(a1-6)]Man(b1-4)GlcNAc(b1-4)GlcNAc
# Summary of the method: as §1
# [54] = target: Gal(b1-4)GlcNAc(b1-3)Gal(b1-3)GlcNAc
# Summary of the method: as §1
# [55] = target: Gal(b1-4)GlcNAc(b1-3)Gal(b1-4)Glc
# Summary of the method: as §1
# [56] = target: Gal(b1-4)GlcNAc(b1-3)Gal(b1-4)GlcNAc
# Summary of the method: as §1
# [57] = target: Gal(b1-4)GlcNAc(b1-3)Gal(b1-4)GlcNAc(b1-3)Gal(b1-4)GlcNAc
# Summary of the method: as §1
# [58] = target: Gal(b1-4)GlcNAc(b1-3)Gal(b1-4)[Fuc(a1-3)]GlcNAc(b1-3)Gal(b1-4)[Fuc(a1-3)]GlcNAc
# Summary of the method: as §1
# [59] = target: Gal(b1-4)GlcNAc(b1-3)GalNAc
# Summary of the method: as §1
# [60] = target: Gal(b1-4)GlcNAc(b1-3)[Gal(b1-4)GlcNAc(b1-6)]Gal(b1-4)GlcNAc
# Summary of the method: as §1
binder,measurement,setting,value
"Spy 2007 (Streptococcus pyogenes), Q99XV3 (protein) MKKGFFLMAMVVSLVMIAGCDKSANPKQPTQGMSVVTSFYPMYAMTKEVSGDLNDVRMIQSGAGIHSFEPSVNDVAAIYDADLFVYHSHTLEAWARDLDPNLKKSKVDVFEASKPLTLDRVKGLEDMEVTQGIDPATLYDPHTWTDPVLAGEEAVNIAKELGRLDPKHKDSYTKNAKAFKKEAEQLTEEYTQKFKKVRSKTFVTQHTAFSYLAKRFGLKQLGISGISPEQEPSPRQLKEIQDFVKEYNVKTIFAEDNVNPKIAHAIAKSTGAKVKTLSPLEAAPSGNKTYLENLRANLEVLYQQLK",glycan array binding signal (z-score),[1],-0.365
same,glycan array binding signal (z-score),[2],-0.177
same,glycan array binding signal (z-score),[3],-0.945
same,glycan array binding signal (z-score),[4],-0.639
same,glycan array binding signal (z-score),[5],-0.263
same,glycan array binding signal (z-score),[6],-0.457
same,glycan array binding signal (z-score),[7],-0.52
same,glycan array binding signal (z-score),[8],-0.301
same,glycan array binding signal (z-score),[9],0.56
same,glycan array binding signal (z-score),[10],0.582
same,glycan array binding signal (z-score),[11],-0.259
same,glycan array binding signal (z-score),[12],-1
same,glycan array binding signal (z-score),[13],0.023
same,glycan array binding signal (z-score),[14],-0.074
same,glycan array binding signal (z-score),[15],-0.796
same,glycan array binding signal (z-score),[16],-0.009
same,glycan array binding signal (z-score),[17],-0.656
same,glycan array binding signal (z-score),[18],-1.09
same,glycan array binding signal (z-score),[19],-0.661
same,glycan array binding signal (z-score),[20],1.01
same,glycan array binding signal (z-score),[21],-0.971
same,glycan array binding signal (z-score),[22],-0.709
same,glycan array binding signal (z-score),[23],-0.651
same,glycan array binding signal (z-score),[24],-0.1
same,glycan array binding signal (z-score),[25],0.496
same,glycan array binding signal (z-score),[26],-0.647
same,glycan array binding signal (z-score),[27],-0.788
same,glycan array binding signal (z-score),[28],-0.348
same,glycan array binding signal (z-score),[29],-0.103
same,glycan array binding signal (z-score),[30],-0.735
same,glycan array binding signal (z-score),[31],-0.386
same,glycan array binding signal (z-score),[32],-0.038
same,glycan array binding signal (z-score),[33],-0.079
same,glycan array binding signal (z-score),[34],-0.24
same,glycan array binding signal (z-score),[35],-0.608
same,glycan array binding signal (z-score),[36],-0.246
same,glycan array binding signal (z-score),[37],-0.377
same,glycan array binding signal (z-score),[38],0.246
same,glycan array binding signal (z-score),[39],-0.411
same,glycan array binding signal (z-score),[40],-0.536
same,glycan array binding signal (z-score),[41],-0.584
same,glycan array binding signal (z-score),[42],-0.344
same,glycan array binding signal (z-score),[43],-0.461
same,glycan array binding signal (z-score),[44],-0.178
same,glycan array binding signal (z-score),[45],-0.197
same,glycan array binding signal (z-score),[46],-0.424
same,glycan array binding signal (z-score),[47],-0.627
same,glycan array binding signal (z-score),[48],-0.825
same,glycan array binding signal (z-score),[49],-1.16
same,glycan array binding signal (z-score),[50],-1.11
same,glycan array binding signal (z-score),[51],-0.392
same,glycan array binding signal (z-score),[52],-0.445
same,glycan array binding signal (z-score),[53],-0.702
same,glycan array binding signal (z-score),[54],0.183
same,glycan array binding signal (z-score),[55],0.349
same,glycan array binding signal (z-score),[56],1.27
same,glycan array binding signal (z-score),[57],1.34
same,glycan array binding signal (z-score),[58],-0.198
same,glycan array binding signal (z-score),[59],-0.377
same,glycan array binding signal (z-score),[60],-0.556

# Random excerpt: 2 entries already listed, in no set order.
binder,measurement,setting,value
"Spy 2007 (Streptococcus pyogenes), Q99XV3 (protein) MKKGFFLMAMVVSLVMIAGCDKSANPKQPTQGMSVVTSFYPMYAMTKEVSGDLNDVRMIQSGAGIHSFEPSVNDVAAIYDADLFVYHSHTLEAWARDLDPNLKKSKVDVFEASKPLTLDRVKGLEDMEVTQGIDPATLYDPHTWTDPVLAGEEAVNIAKELGRLDPKHKDSYTKNAKAFKKEAEQLTEEYTQKFKKVRSKTFVTQHTAFSYLAKRFGLKQLGISGISPEQEPSPRQLKEIQDFVKEYNVKTIFAEDNVNPKIAHAIAKSTGAKVKTLSPLEAAPSGNKTYLENLRANLEVLYQQLK",glycan array binding signal (z-score),[32],-0.038
same,glycan array binding signal (z-score),[5],-0.263

# — the supplement of paper PMC8728848
